Measurements as given in article PMC13434659.

Molecular target: T1, human PKD2, transiently over-expressed in HEK293T cells (tag not stated) (human) (UniProt Q13563)
T1 sequence: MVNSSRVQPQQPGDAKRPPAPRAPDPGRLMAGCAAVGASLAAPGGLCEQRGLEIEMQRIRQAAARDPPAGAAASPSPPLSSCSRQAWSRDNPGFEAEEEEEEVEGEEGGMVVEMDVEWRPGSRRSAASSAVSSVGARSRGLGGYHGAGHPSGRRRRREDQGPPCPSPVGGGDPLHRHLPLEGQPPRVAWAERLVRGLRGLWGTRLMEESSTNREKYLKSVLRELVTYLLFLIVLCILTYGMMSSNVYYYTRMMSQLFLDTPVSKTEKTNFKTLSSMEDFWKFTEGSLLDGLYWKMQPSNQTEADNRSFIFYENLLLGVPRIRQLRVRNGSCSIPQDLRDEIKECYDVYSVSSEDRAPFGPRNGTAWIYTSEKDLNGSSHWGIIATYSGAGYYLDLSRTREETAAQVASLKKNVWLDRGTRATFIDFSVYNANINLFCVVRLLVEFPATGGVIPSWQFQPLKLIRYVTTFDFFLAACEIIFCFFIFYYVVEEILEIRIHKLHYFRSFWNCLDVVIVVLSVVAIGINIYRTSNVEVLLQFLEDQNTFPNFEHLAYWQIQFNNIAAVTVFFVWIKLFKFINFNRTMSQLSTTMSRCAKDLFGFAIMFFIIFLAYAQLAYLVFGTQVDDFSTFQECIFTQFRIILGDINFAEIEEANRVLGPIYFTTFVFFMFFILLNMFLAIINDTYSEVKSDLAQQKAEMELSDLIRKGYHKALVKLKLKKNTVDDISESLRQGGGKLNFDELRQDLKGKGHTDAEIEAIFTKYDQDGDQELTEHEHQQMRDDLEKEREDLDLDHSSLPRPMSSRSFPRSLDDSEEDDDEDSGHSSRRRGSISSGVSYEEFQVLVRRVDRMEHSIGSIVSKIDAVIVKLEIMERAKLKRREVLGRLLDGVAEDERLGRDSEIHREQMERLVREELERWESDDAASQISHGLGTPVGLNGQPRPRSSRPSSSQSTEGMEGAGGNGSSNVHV
Assay: proximity labelling; biotin neighborhood labeling in HEK293T cells transiently overexpressing human PKD2, enriched complexes analysed by LC-MS/MS

- binding: binds
B1: endogenous RASSF4 of HEK cells (protein, UniProt Q9H2L5 1-321)
chain: MKEDCLPSSHVPISDSKSIQKSELLGLLKTYNCYHEGKSFQLRHREEEGTLIIEGLLNIAWGLRRPIRLQMQDDREQVHLPSTSWMPRRPSCPLKEPSPQNGNITAQGPSIQPVHKAESSTDSSGPLEEAEEAPQLMRTKSDASCMSQRRPKCRAPGEAQRIRRHRFSINGHFYNHKTSVFTPAYGSVTNVRVNSTMTTLQVLTLLLNKFRVEDGPSEFALYIVHESGERTKLKDCEYPLISRILHGPCEKIARIFLMEADLGVEVPHEVAQYIKFEMPVLDSFVEKLKEEEEREIIKLTMKFQALRLTMLQRLEQLVEAK

These are yes or no findings as the source states them, for the method shown. In cells and extracts the contact can be indirect. A yes stands for co-enrichment or nearness to the bait. Other partners may have been found. Sequences can lack the tags named with a protein.
